Source: article PMC4226948
No constants are given. Whether binding was seen depends on the method and setting. Binding seen in cells or lysates may run through a third protein.

Sequences of proteins named here, by UniProt entry; tags and fusion partners are left off. A change or cut given only in a name is not applied to a line headed by its entry.
UniProt Q9VJY7: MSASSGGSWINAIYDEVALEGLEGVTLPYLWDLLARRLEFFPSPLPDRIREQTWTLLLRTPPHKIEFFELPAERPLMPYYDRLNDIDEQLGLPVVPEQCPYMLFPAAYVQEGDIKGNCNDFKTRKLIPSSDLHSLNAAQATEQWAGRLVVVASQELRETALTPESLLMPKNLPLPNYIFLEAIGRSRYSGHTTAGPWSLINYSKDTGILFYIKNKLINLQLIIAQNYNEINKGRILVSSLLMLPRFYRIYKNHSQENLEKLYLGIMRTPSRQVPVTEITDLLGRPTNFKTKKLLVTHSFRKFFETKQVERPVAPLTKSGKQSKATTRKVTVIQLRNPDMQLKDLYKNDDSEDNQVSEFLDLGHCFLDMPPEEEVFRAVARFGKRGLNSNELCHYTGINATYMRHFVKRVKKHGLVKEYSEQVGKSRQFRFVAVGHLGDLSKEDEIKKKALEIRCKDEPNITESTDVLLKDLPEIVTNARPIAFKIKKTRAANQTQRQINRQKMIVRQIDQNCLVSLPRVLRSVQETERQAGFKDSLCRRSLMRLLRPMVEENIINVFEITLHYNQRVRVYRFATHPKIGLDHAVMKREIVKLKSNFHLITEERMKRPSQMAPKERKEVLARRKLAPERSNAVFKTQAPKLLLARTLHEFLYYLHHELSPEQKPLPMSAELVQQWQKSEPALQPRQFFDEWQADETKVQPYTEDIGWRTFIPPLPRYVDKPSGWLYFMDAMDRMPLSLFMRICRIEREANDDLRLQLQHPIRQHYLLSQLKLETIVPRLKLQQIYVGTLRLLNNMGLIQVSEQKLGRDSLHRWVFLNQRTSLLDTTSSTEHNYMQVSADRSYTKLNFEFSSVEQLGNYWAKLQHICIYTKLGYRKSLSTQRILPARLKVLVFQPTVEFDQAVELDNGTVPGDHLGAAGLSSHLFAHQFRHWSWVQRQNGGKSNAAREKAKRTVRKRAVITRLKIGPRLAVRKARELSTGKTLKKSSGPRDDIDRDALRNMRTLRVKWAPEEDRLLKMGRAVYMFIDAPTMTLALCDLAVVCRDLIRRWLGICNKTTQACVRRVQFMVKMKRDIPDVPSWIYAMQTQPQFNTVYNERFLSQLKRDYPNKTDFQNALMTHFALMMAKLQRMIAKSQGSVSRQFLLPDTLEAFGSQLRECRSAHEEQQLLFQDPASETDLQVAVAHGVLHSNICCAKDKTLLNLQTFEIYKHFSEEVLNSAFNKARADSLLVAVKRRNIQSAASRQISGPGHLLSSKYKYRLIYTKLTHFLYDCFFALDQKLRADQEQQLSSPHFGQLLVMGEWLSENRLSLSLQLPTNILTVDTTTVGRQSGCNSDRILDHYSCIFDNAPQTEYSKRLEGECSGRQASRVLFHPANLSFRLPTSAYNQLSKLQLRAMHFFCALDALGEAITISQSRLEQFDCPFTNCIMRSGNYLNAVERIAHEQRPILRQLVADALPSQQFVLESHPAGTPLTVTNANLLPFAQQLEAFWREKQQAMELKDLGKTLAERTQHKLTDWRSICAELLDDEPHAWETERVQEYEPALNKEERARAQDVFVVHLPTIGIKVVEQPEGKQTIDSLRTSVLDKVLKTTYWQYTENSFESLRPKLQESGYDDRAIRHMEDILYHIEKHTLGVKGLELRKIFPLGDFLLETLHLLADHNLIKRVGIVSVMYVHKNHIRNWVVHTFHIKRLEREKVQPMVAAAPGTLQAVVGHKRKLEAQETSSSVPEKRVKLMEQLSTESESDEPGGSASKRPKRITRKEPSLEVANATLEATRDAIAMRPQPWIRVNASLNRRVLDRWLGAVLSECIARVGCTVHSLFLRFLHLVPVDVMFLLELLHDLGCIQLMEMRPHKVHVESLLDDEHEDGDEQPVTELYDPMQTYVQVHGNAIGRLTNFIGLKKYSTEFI

Molecular target: dTFIIIC220 (CG7099), predicted B box binding subunit of Drosophila TFIIIC (D. melanogaster (endogenous in Kc167)) (UniProt Q9VJY7)
Assay: co-IP; Kc167 lysate in PBSMT (2.5 mM MgCl2, 3 mM KCl, 0.3% Triton X-100 in PBS) at 4°C; rabbit polyclonal anti-dTFIIIC220 or pre-immune serum on Protein A Sepharose, 1 h; bound proteins eluted with 1 M MgCl2; western blot

binding	Binder
no binding	Drosophila homolog of CTCF (dCTCF) (protein, UniProt Q9VS55 1-818) MPRRTKKDEDPEDLQTFLNNFHKEIEGNSDEKVVNTILEAISAEAIDLDENGAEAGGSKPMEEAEADLDHAEEAEEEEEDDEDKYFIDDEGNCYIKTTPKKQKELQKKLKQAAAKPGKATRSVVSTATNKSINLRPAKSTPKATTSKPPPEPKAISVRPARAAAAKAKQSAMPPPPALVVKVPAPRGRPRKNPVIPKPEPMDLERELEELVDEPDISSMVTELSDYTVDEAAVEAATATLTPNEAEVYEFEDNATTEDENADKKDVDFVLSNKEVKLKTASSTSQNSNASGHKYSCPHCPYTASKKFLITRHSRSHDVEPSFKCSICERSFRSNVGLQNHINTHMGNKPHKCKLCESAFTTSGELVRHTRYKHTKEKPHKCTECTYASVELTKLRRHMTCHTGERPYQCPHCTYASQDMFKLKRHMVIHTGEKKYQCDICKSRFTQSNSLKAHKLIHSVVDKPVFQCNYCPTTCGRKADLRVHIKHMHTSDVPMTCRRCGQQLPDRYQYKLHVKSHEGEKCYSCKLCSYASVTQRHLASHMLIHLDEKPFHCDQCPQAFRQRQLLRRHMNLVHNEEYQPPEPREKLHKCPSCPREFTHKGNLMRHMETHDDSANAREKRRRLKLGRNVRLQKDGTVITLIKDQYVDMDRDQEENEEDDNPESYDLAEIEPENSEAEDADDDVETIVSDPIRQRIKPAPIIINKQARLAASEKQPMIINQRLRSQRGTKTFHIKEEPDNSDFTVEWQGDDGEVMVVELVNGDEEVLVKHEPSANSKISAKNCFGFEDDDDYEEYGDGENEVDGASQEFLQLMDMIEQDS
no binding	Suppressor of hairy-wing (Su(Hw)) (protein, UniProt P08970 1-941) MSASKEGKEKKGKLLGVENISPPKDKRPATRMKLLNDVGAGEDSEASTTTTTSRTPSNKQEKRGSVAGSRIKILNEEILGTPKTEKRGATKSTAPAASTVKILNEKKTPSATVTAVETTKIKTSPSKRKKMEHYVLQAVKSENTKADTTVTVVTEEDDTIDFILADDEEVVPGRIENNNGQEIVVTEDDEDLGEDGDEDGEDSSGKGNSSQTKIKEIVEHVCGKCYKTFRRVQSLKKHLEFCRYDSGYHLRKADMLKNLEKIEKDAVVMEKKDICFCCSESYDTFHLGHINCPDCPKSFKTQTSYERHIFITHSEFSDFPCSICNANLRSEALLALHEEQHKSRGKPYACKICGKDFTRSYHLKRHQKYSSCSSNETDTMSCKVCDRVFYRLDNLRSHLKQHLGTQVVKKPEYMCHTCKNCFYSLSTLNIHIRTHTGEKPFDCDLCDKKFSALVALKKHRRYHTGEKPYSCTVCNQAFAVKEVLNRHMKRHTGERPHKCDECGKSFIQATQLRTHSKTHIRPFPCEQCDEKFKTEKQLERHVKTHSRTKRPVFSCAECKRNFRTPALLKEHMDEGKHSPKQQRSSMRSAVKIMERTDCAICDKNFDSSDTLRRHIRTVHECDPDDIFGVEPHPSKRAKKDIESEEVVPVALNTSAGSLISSQTDGNGVVVREFLVDEGDGAAQTITLENETYTILPLDGAIEGEQLTDEAGVKPEAKKEEAQVSPVVKKEQRKSLAASLAAAIADNLEESCSEDDFSGEILTEEDIKLKENVGKLIDMLVDPPILKKYGWPNAPEETVLCKVIENCGHDLTKGGENYAELDYGSRMREYCKLLFTVVIHNDSIKSLLNNFPIDDVIEYVLGDEDQDEGGLDKDNESHSGDEEAVSVTGETKTNEIREKPEKKEVSAKSEKKEIVGKAVDKDNSEEVVRENKKKPVGEQEKA
